For 36 targets, log2 fold change results are on record in the supplement of paper PMC12819154, “High-throughput peptide-centric local stability assay extends protein–ligand identification to membrane proteins, tissues and bacteria” (Nature Structural & Molecular Biology, 2025).

By UniProt entry, the sequences of proteins in these tests, tags left out. Where a name states a change or a piece, a line headed by the entry shows the natural chain unless it says otherwise.
UniProt Q80YE7: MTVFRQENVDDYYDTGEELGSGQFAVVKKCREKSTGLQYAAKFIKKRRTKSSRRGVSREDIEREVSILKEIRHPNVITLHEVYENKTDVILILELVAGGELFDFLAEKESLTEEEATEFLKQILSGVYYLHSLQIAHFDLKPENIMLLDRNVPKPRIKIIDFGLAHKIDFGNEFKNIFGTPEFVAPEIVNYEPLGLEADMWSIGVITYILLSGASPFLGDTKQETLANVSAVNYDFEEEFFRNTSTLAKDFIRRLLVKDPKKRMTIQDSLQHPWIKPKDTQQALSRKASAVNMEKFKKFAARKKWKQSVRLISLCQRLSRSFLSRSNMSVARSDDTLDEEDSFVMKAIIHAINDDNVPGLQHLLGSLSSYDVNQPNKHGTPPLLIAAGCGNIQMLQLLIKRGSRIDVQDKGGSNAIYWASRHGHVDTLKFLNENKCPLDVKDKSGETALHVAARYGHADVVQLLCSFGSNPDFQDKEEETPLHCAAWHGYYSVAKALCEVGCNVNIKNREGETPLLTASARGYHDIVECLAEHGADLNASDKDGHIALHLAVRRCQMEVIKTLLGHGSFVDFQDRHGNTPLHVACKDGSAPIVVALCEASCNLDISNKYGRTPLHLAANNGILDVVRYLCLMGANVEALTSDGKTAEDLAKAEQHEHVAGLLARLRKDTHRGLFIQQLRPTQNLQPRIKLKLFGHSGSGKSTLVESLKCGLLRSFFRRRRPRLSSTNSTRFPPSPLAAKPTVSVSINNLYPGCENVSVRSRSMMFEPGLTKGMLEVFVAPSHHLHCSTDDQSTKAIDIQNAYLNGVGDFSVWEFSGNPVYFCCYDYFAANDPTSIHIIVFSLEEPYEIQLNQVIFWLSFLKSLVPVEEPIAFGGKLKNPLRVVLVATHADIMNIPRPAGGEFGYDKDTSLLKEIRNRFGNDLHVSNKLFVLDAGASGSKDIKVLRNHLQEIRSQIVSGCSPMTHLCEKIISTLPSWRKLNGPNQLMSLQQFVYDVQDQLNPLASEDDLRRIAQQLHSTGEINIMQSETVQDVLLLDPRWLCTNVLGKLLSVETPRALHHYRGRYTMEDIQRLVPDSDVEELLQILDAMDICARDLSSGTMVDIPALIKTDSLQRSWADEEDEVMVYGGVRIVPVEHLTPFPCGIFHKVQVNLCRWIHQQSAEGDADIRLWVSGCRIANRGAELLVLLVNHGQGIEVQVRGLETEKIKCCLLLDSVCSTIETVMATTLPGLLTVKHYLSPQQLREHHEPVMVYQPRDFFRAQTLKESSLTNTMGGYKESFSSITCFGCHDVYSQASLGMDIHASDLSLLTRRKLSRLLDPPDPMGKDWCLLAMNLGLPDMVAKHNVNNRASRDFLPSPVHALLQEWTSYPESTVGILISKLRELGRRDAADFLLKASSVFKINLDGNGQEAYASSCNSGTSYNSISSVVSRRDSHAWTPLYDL
UniProt Q80YS5: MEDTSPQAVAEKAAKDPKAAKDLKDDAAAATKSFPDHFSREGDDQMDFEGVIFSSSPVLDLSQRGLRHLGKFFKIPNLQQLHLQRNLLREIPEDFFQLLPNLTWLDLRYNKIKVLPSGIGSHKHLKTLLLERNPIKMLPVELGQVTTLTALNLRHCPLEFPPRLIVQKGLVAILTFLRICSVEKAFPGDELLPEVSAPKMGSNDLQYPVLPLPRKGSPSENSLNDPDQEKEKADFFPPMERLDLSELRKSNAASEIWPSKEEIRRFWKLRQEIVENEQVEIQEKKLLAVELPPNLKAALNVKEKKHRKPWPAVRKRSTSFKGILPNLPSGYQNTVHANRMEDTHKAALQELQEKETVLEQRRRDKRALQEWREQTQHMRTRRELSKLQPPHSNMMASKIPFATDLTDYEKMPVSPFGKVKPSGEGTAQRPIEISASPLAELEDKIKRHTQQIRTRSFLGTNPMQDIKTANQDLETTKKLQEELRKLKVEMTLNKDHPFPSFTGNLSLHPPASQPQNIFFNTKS
UniProt Q80YC5: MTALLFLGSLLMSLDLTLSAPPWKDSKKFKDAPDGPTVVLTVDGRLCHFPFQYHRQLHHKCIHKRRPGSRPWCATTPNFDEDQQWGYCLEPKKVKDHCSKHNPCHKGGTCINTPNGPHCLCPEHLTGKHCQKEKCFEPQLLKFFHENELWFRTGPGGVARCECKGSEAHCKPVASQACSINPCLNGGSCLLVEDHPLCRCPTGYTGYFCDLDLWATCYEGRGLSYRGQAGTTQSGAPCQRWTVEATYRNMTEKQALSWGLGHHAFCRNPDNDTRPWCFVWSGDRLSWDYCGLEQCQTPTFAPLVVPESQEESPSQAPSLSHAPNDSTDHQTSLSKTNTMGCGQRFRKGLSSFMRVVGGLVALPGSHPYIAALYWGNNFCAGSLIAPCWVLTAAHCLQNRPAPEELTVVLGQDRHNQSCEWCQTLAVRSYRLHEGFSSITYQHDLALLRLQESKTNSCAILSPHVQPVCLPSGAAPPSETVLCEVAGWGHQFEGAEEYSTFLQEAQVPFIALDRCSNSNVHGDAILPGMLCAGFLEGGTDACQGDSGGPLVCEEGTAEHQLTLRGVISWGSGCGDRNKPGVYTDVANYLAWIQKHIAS
UniProt Q8BGD9, whole entry: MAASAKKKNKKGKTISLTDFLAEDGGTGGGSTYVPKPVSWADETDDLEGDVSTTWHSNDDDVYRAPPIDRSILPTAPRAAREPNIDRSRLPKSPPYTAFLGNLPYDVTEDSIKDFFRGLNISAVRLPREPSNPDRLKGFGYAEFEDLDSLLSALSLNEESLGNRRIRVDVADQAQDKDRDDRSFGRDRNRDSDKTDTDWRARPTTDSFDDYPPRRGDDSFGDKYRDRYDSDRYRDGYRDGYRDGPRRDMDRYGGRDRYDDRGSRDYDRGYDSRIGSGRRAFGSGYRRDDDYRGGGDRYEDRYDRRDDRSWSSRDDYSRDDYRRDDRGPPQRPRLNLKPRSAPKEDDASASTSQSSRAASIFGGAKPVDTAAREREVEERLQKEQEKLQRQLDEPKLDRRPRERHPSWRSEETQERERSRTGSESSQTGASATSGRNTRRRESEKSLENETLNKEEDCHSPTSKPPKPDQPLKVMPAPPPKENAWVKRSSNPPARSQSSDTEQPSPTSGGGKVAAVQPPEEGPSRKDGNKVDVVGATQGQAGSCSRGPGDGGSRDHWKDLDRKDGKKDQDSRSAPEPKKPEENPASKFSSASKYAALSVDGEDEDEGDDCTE
UniProt Q8BGA5: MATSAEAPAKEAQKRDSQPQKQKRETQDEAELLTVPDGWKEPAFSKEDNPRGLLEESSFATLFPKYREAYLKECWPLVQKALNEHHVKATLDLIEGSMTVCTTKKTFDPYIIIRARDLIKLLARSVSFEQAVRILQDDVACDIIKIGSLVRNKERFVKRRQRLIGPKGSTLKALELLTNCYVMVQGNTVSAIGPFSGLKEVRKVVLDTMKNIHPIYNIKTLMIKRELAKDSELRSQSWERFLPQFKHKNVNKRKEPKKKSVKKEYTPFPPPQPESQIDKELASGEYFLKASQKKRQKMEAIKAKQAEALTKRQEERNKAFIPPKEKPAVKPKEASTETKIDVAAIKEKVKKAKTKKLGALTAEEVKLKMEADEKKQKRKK
UniProt Q80YV3, whole entry: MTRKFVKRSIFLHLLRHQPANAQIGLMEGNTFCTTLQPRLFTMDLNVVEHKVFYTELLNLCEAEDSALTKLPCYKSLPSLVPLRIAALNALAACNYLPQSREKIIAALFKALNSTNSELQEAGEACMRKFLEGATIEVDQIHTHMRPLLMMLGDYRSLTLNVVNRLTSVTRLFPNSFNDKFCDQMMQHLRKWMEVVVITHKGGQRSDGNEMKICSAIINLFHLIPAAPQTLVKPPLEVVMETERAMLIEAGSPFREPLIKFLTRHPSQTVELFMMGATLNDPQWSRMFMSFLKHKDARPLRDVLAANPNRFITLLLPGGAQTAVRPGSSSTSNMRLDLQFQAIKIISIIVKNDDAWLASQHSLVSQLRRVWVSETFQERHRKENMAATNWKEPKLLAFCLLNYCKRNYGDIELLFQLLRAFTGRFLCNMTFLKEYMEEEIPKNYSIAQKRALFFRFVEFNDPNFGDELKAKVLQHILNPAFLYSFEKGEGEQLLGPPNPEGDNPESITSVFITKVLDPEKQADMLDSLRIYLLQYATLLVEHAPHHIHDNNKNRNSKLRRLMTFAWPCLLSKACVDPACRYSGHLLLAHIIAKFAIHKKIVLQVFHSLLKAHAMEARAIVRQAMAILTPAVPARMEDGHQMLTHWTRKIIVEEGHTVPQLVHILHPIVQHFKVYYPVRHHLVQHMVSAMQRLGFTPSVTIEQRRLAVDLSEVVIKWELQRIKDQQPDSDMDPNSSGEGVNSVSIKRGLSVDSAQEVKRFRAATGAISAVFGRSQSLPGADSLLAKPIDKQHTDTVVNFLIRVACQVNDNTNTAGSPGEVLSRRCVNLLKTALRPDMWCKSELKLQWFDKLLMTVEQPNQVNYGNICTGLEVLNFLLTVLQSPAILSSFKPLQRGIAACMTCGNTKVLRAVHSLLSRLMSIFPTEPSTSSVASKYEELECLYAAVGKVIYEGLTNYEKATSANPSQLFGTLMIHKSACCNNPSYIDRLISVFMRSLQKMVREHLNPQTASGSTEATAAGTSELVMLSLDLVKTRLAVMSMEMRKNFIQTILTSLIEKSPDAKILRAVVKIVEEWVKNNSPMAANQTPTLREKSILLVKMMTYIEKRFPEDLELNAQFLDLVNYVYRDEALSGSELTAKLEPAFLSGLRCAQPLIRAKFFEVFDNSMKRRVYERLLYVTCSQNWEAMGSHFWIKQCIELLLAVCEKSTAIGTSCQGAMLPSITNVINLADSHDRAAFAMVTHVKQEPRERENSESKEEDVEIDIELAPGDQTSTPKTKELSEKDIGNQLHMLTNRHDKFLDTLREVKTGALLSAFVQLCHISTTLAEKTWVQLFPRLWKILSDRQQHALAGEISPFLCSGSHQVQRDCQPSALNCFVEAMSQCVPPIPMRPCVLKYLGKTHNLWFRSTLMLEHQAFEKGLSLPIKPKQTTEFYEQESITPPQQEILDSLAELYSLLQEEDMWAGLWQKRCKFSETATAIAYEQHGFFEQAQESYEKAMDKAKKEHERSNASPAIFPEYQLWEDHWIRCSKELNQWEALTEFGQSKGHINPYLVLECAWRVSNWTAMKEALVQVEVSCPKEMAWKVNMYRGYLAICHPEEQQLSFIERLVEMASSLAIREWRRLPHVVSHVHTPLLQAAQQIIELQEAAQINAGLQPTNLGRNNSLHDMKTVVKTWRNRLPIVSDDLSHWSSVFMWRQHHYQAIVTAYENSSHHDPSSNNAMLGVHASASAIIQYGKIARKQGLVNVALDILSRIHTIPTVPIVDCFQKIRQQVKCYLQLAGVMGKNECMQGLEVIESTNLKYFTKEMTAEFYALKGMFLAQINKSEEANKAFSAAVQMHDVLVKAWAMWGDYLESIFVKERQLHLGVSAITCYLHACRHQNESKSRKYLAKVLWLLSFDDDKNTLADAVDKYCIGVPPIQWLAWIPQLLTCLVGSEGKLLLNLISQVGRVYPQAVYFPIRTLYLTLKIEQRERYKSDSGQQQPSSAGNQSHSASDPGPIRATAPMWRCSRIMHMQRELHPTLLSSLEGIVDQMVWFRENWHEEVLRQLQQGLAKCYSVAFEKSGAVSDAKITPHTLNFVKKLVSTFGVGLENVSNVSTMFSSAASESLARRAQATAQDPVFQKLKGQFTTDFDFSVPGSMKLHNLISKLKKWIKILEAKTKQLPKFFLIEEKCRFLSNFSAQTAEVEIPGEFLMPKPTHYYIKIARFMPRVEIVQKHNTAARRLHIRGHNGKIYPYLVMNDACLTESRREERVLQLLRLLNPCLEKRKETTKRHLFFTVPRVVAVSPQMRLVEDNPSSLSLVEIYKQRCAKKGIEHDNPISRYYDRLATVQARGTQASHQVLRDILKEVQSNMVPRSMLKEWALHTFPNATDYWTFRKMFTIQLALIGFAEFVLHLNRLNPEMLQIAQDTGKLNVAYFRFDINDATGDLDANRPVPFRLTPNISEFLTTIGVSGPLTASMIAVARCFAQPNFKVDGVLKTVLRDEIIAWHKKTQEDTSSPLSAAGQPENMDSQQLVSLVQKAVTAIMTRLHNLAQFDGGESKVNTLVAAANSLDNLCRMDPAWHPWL
UniProt Q8BHX1: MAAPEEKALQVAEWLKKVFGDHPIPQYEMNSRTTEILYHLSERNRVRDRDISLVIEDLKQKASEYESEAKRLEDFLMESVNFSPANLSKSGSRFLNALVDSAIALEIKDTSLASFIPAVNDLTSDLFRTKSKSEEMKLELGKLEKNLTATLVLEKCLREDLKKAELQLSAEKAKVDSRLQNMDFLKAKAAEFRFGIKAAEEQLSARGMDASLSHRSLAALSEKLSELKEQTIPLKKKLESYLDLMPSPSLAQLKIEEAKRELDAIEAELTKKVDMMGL
UniProt Q80XH1: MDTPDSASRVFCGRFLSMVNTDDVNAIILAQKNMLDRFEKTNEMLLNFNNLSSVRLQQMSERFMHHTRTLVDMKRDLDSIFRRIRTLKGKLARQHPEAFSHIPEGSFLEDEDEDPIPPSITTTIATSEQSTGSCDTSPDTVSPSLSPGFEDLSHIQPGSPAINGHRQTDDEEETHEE

The list shows a part of the results. Small differences around the control level are noise.

Compound in this test: CN[C@@H]1C[C@H]2O[C@@](C)([C@@H]1OC)n1c3ccccc3c3c4c(c5c6ccccc6n2c5c31)C(=O)NC4 [staurosporine]
Put plainly: log2 fold change of tryptic peptide abundance, ligand vs vehicle (limited proteolysis) (log2 ratio); higher = more trypsin-susceptible (destabilized). The settings on record: ligand concentration: 20 uM; sample: mouse liver crude lysate; replicate design: treated separately.
Turning to “UniProt Q810L4 (peptide sequence: KTNLFTHMASMGPR, peptide start residue: 213)”, the log2 fold change stood at 0.474.

“UniProt Q8BFY9 (peptide sequence: LIPVLVNGMK, peptide start residue: 308)”: the log2 fold change is -0.159.

Consider “UniProt Q80YE7 (peptide sequence: KASAVNMEK, peptide start residue: 287)”, for which the log2 fold change is 0.491.

Turning to “UniProt Q80YR2 (peptide sequence: ELAAIAFVK, peptide start residue: 749)”, the log2 fold change is -0.155.

With “UniProt Q80XI4 (peptide sequence: DLPTFKDNDFLNEGQK, peptide start residue: 234)”, the log2 fold change stood at 0.176.

For the target “UniProt Q8BHL7 (peptide sequence: LGCCVVEKPQPK, peptide start residue: 8)”, the log2 fold change was -0.134.

As for “UniProt Q8BHC7 (peptide sequence: PVTYDATYR, peptide start residue: 251)”, the log2 fold change is 0.512.

Take “UniProt Q80Y55 (peptide sequence: SWLQQSYQAVK, peptide start residue: 12)”: the log2 fold change came out at 0.161.

In the case of “UniProt Q8BGB5 (peptide sequence: ELWAHKEVDSGTK, peptide start residue: 114)”, the log2 fold change is -0.158.

In the case of “UniProt Q80YX1 (peptide sequence: NGREDFYR, peptide start residue: 1940)”, the log2 fold change was 0.127.

In the case of “UniProt Q8BH44 (peptide sequence: LKEELAQK, peptide start residue: 452)”, the log2 fold change was -0.335.

As for “UniProt Q8BFR4 (peptide sequence: NFNIHGTNK, peptide start residue: 250)”, the log2 fold change is -0.0955.

On to “UniProt Q8BH97 (peptide sequence: DVAKEFDK, peptide start residue: 63)”, for which the log2 fold change was -0.278.

“UniProt Q8BFZ3 (peptide sequence: GIHETTFNSIMK, peptide start residue: 274)”: the log2 fold change came to 0.0568.

In the case of “UniProt Q811P8 (peptide sequence: SLLVSSPSTK, peptide start residue: 587)”, the log2 fold change was -0.278.

Turning to “UniProt Q811S7 (peptide sequence: QNENGEYTDHLHSASCQIK, peptide start residue: 215)”, the log2 fold change is -0.474.

Turning to “UniProt Q80YS5 (peptide sequence: SFPDHFSR, peptide start residue: 33)”, the log2 fold change came to 0.203.

On to “UniProt Q80VP0 (peptide sequence: GHETSGNTDHSTENACLTEGKEK, peptide start residue: 448)”, for which the log2 fold change amounted to 0.666.

For the target “UniProt Q8BH65 (peptide sequence: QFLPEEFMK, peptide start residue: 473)”, the log2 fold change is -0.237.

In the case of “UniProt Q8BFW3 (peptide sequence: ASSEATVAFSGHHTLLSCK, peptide start residue: 573)”, the log2 fold change was determined as 0.45.

With “UniProt Q8BHD1 (peptide sequence: LHFEASPHLLDIYPR, peptide start residue: 316)”, the log2 fold change was -0.229.

Consider “UniProt Q8BFQ9 (peptide sequence: EAVRPEVGPEVQQLR, peptide start residue: 40)”, for which the log2 fold change is -0.00357.

Take “UniProt Q80YC5 (peptide sequence: TNTMGCGQRFRK, peptide start residue: 336)”: the log2 fold change worked out at 0.202.

In the case of “UniProt Q80Y83 (peptide sequence: SLTPFMVNIPK, peptide start residue: 638)”, the log2 fold change is -0.193.

Regarding “UniProt Q8BGD9 (peptide sequence: DDDYRGGGDR, peptide start residue: 288)”, the log2 fold change is -0.575.

With “UniProt Q8BGA5 (peptide sequence: LKMEADEK, peptide start residue: 367)”, the log2 fold change was -0.379.

On to “UniProt Q80YV3 (peptide sequence: AQATAQDPVFQK, peptide start residue: 2110)”, for which the log2 fold change was 0.134.

For the target “UniProt Q8BHG2 (peptide sequence: LMDSVALK, peptide start residue: 48)”, the log2 fold change is 0.14.

For the target “UniProt Q811L6 (peptide sequence: ASDVLVQGEGR, peptide start residue: 2265)”, the log2 fold change is -0.477.

Regarding “UniProt Q8BGU5 (peptide sequence: SLFINHHPPGQTSR, peptide start residue: 83)”, the log2 fold change is -0.219.

For the target “UniProt Q8BGZ4 (peptide sequence: CCAFNDTREEGK, peptide start residue: 536)”, the log2 fold change is 0.533.

As to “UniProt Q8BH55 (peptide sequence: NIVLMGPPGSGK, peptide start residue: 57)”, the log2 fold change was -0.13.

Consider “UniProt Q8BHX1 (peptide sequence: AAEEQLSAR, peptide start residue: 198)”, for which the log2 fold change was -0.354.

With “UniProt Q8BG79 (peptide sequence: TQVLEQSK, peptide start residue: 182)”, the log2 fold change was -0.2.

On to “UniProt Q810B6 (peptide sequence: GRTPLHLSIMAR, peptide start residue: 367)”, for which the log2 fold change was -0.468.

Take “UniProt Q80XH1 (peptide sequence: LQQMSER, peptide start residue: 56)”: the log2 fold change is -0.205.
